Values joined by “and” are separate entries in the source; they are usually repeats but may differ in a detail not shown here. Equal values may be shown once. Out of some 350,000 compounds screened, about 6,000 (1.7%) were called active. This list was built around the results that the source calls inconclusive (neither active nor inactive); the mix of calls is not that of the screen. Rule as the data show it: active = CPE inhibition above about 20% (passing the limit was not always enough); inconclusive = no clear call, values can overlap the other calls; tested in BHK-21 cells. More than one record can exist for a structure, and the calls need not agree.
Experiment: protection of cells from dengue 2 killing – plate reader, single concentration, primary screen (AID 651640);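 also: 0% = median of neutral control wells and 100% = median of positive control wells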
Conditions: DENV2-infected cells, cytopathic effect rescue, at 9.99 µM, stronger effect = higher value

| Structure (SMILES) | CPE inhibition |
| --- | --- |
| CC1CCCCN1CCCNC(=O)c1ccc2nc(N3CCCCC3)sc2c1 (centres undefined) | active: 24.8% |
| COc1ccc(C(O)P(=O)(OCC(C)C)c2ccc(N(C)C)cc2)c(OC)c1 (centres undefined) | inconclusive: 33.3% |
| C[C@H](NC(=O)C[C@H]1C=C[C@@H](NC(=O)c2cccnc2)[C@H](CO)O1)c1ccccc1 | inconclusive: 42% |
| C/C=C/c1ccc([C@@H]2[C@H]3CN(C(=O)Nc4ccc(OC)cc4)CCCCN3[C@H]2CO)cc1 | inactive: 5.2% |
| NC(=O)CC(NC(=O)Cc1ccc(Br)cc1)c1ccc(NCCc2ccccc2F)c([N+](=O)[O-])c1 (centres undefined) | inconclusive: 45.6% |
| C[C@@H]1CN([C@@H](C)CO)C(=O)c2cc(NS(=O)(=O)c3cn(C)cn3)ccc2O[C@@H](C)CCCCO[C@H]1CN(C)S(=O)(=O)c1cn(C)cn1 | inconclusive: 42.4% |
| NC(=O)c1ncn([C@@H]2O[C@H](C(=O)Nc3ccc(C(=O)N4CCCCC4)cc3)[C@@H](O)[C@H]2O)n1 | inconclusive: 24.5% |
| Cc1cc(N2CCN(C(=O)OC(C)(C)C)C[C@@H]2C)ccc1N1CCS(=O)(=O)CC1 | inconclusive: 23.2% |
| O=C(N/N=C/c1ccoc1)c1cc(Br)ccc1O | inconclusive: 56% |
| CCC(=O)OCc1cc(=O)oc2ccc3ccccc3c12 | inconclusive: 25.8% |
| CC1(C)CC(=O)C(C(O)c2ccc([N+](=O)[O-])cc2)C(C)(C)N1 (centres undefined) | inconclusive: 39.8% |
| Cc1ccc(OCCSc2nc3ccccc3n2CCC(=O)O)c(C(C)C)c1 | inconclusive: 72.4% |
| CC1(C)C2CCC(C2)C1(C)N=C1OC(CCl)CS1 (centres undefined) | inactive: -2.99% |
| COc1ccc(CNC(=O)c2cc(=O)c3cc(C)cc(C)c3o2)cc1 | inconclusive: 40.7% |
| O=C(CC1C[C@H](C(=O)N2CCCCC2)[C@@]2(CCc3ccccc3)c3[nH]c4ccccc4c3CCN2C1=O)NCc1cccc(C(F)(F)F)c1 (some centres undefined) | inactive: 4.87% |
| CCCC#Cc1ccc2c(c1)O[C@H](CN(C)C(=O)c1ccncc1)[C@@H](C)CN([C@H](C)CO)S2(=O)=O | inactive: -12.7% |
| C[C@@H]1CN([C@@H](C)CO)C(=O)c2cc(NC(=O)c3ccncc3)ccc2O[C@@H](C)CCCCO[C@H]1CN(C)C(=O)C1CCCCC1 | inactive: -6.48% |
| O=C(Nc1cccnc1)c1cc2cc(Br)ccc2o1 | inconclusive: 50.2% |
| C[C@@H](NC(=O)C[C@H]1C=C[C@H](NS(=O)(=O)c2cccc(F)c2)[C@H](CO)O1)c1ccccc1 | inconclusive: 21.2% |
| CCCCCCCCN1C(=O)[C@H](CC(=O)NCCCOC)C[C@@]2(C(=O)OC)CC(C)(C)CC=C12 | inconclusive: 49.2% |
| c1ccc(OCCOCCN2CCN(C(c3ccccc3)c3ccccc3)CC2)cc1 | inconclusive: 69.7% |
| CCNC(=O)N(C)C[C@H]1N[C@@](CC)(C(=O)OC)[C@H]2C(=O)N(C)C(=O)[C@@H]12 | inconclusive: 160% |
| C[C@@H]1CCCCO[C@@H](CN(C)S(=O)(=O)c2ccccc2)[C@H](C)CN([C@@H](C)CO)C(=O)c2cc(NS(=O)(=O)c3cn(C)cn3)ccc2O1 | inactive: 0.475% |
| CC1C=CC(C)C(C(=O)c2ccccc2)C1C(=O)c1ccccc1 (centres undefined) | inconclusive: 46% |
| Cc1ccc(NC(=O)c2ncn(CC(=O)NCc3ccc4c(c3)OCO4)n2)cc1C | inconclusive: 28.6% |

For convenience, five of the compounds above.

| Structure (SMILES) | CPE inhibition |
| --- | --- |
| CCCC#Cc1ccc2c(c1)O[C@H](CN(C)C(=O)c1ccncc1)[C@@H](C)CN([C@H](C)CO)S2(=O)=O | inactive: -12.7% |
| C[C@@H]1CN([C@@H](C)CO)C(=O)c2cc(NC(=O)c3ccncc3)ccc2O[C@@H](C)CCCCO[C@H]1CN(C)C(=O)C1CCCCC1 | inactive: -6.48% |
| O=C(Nc1cccnc1)c1cc2cc(Br)ccc2o1 | inconclusive: 50.2% |
| C[C@@H](NC(=O)C[C@H]1C=C[C@H](NS(=O)(=O)c2cccc(F)c2)[C@H](CO)O1)c1ccccc1 | inconclusive: 21.2% |
| CCCCCCCCN1C(=O)[C@H](CC(=O)NCCCOC)C[C@@]2(C(=O)OC)CC(C)(C)CC=C12 | inconclusive: 49.2% |

The list continues.

| Structure (SMILES) | CPE inhibition |
| --- | --- |
| Cc1ccc(S(=O)(=O)N(C)C[C@H]2OCCCC[C@H](C)Oc3ccc(NS(=O)(=O)c4ccccc4)cc3C(=O)N([C@H](C)CO)C[C@@H]2C)cc1 | inactive: 0.425% |
| COC(=O)c1ccc2c(c1)NC(=O)C(N(CC(C)C)CC(C)C)S2 (centres undefined) | inconclusive: 43.8% |
| C[C@H]1CN([C@@H](C)CO)C(=O)c2cccc(NC(=O)Nc3ccccc3)c2O[C@H]1CN(C)S(=O)(=O)c1cn(C)cn1 | inactive: -5.85% |
| O=C(Cn1c(=O)oc2ccccc21)Nc1ccccc1N1CCOCC1 | inconclusive: 20.5% |
| C[C@@H]1CN([C@H](C)CO)C(=O)c2cc(-c3cccc(C(=O)N(C)C)c3)cnc2O[C@H]1CN(C)C | inactive: 7.87% |
| CNC[C@H]1Oc2c(NS(=O)(=O)c3cccs3)cccc2C(=O)N([C@H](C)CO)C[C@H]1C | inconclusive: 22% |
| C[C@H]1CN([C@@H](C)CO)C(=O)Cc2cc(NC(=O)Nc3cccc4ccccc34)ccc2O[C@@H]1CN(C)Cc1ccc(C(=O)Nc2ccccc2N)cc1 | active: 38.2% |
| CN(CC(=O)Nc1ccccc1Cl)C(=O)C1CCN(C(=O)c2ccc(F)cc2)CC1 | inconclusive: 23.4% |
| COc1cccc(NC(=O)CSc2nn3c(=O)c(C)nnc3s2)c1 | inconclusive: 20.3% |
| N#CC[C@H](c1ccccc1)N1CCN(Cc2ccccc2)CCC1=O | active: 60.1% |
| N#CC1(NC(=O)COc2ccc3ccc(=O)oc3c2)CCCCC1 | inconclusive: 78.3% |
| CC1(C(=O)NS(C)(=O)=O)CCN1C(=O)C/C=C/c1ccccc1 (centres undefined) | active: 60.9% |
| COc1cccc(NC(=O)COc2cccc3c2CCNC3=O)c1 | active: 27.6% |
| COc1cccc(C(=O)Oc2cc(C)[nH]c(=O)c2[N+](=O)[O-])c1OC | active: 101% |
| O=C(Nc1cccc(S(=O)(=O)Nc2ccccc2F)c1)c1ccc2ccccc2n1 | inactive: 1.93% |
| COc1ccc(NC(=O)Nc2ccc3c(c2)C(=O)N([C@H](C)CO)C[C@@H](C)[C@H](CN(C)S(=O)(=O)c2ccc(Cl)cc2)O3)cc1 | active: 68.4% |
| CC(C)(C)C(=O)Nc1ccccc1C(=O)NCCC(=O)Nc1ccccc1 | inconclusive: 55.5% |
| O=C(NC(Cc1ccccc1)C(=O)NC(Cc1ccccc1)C(=O)O)c1ccccc1 (centres undefined) | inconclusive: 25.3% |
| CCN1CCN(C(=O)CN(CC)S(=O)(=O)c2ccc(F)cc2)CC1 | inactive: -0.151% |
| Cc1ccc(C(=O)N2CCN(S(=O)(=O)c3ccc(C)c([N+](=O)[O-])c3)C2)cc1 | inactive: 3.92% |
| CC(=O)NC[C@@H]1[C@@H](c2ccc(-c3cccnc3)cc2)[C@H](CO)N1C(=O)C1CCC1 | active: 30.8% |
| COc1ccc(Cl)cc1Cn1c(C)c(C(=O)NCc2ccc(C#N)cc2)sc1=O | inconclusive: 41.6% |
| CCc1sc(C(=O)N(CCCOC)c2c(N)n(CC(C)C)c(=O)[nH]c2=O)cc1C | inconclusive: 20.6% |
| C(=C\c1ccncc1)/c1ccncc1 | inactive: 3.5% |
| COc1ccc(NC(=O)N[C@H]2CC[C@H](CCn3cc(-c4ccccc4)nn3)O[C@@H]2CO)cc1 | active: 37% |

| Structure (SMILES) | CPE inhibition |
| --- | --- |
| O=C(CN1CCOCC1)N1CC(=O)N2[C@H](CO)[C@@H](c3ccc(/C=C/c4ccccc4)cc3)[C@H]2C1 | inconclusive: 25.1% |
| C[C@H](O)[C@@H]1CN2CCc3c([nH]c4ccccc34)[C@@H]2C[C@@H]1N(C)C(=O)Nc1ccc(F)cc1 | inconclusive: 52.8% |
| CC(C)NC(=O)N(C)C[C@H]1OCc2cnnn2CCCC(=O)N([C@H](C)CO)C[C@@H]1C | active: 91.8% |
| CCC(=O)c1cccc(-c2ccccc2)c1CC | inconclusive: 53.8% |
| C[C@H](CO)N1C[C@H](C)[C@H](CN(C)Cc2ccncc2)Oc2ncc(/C=C/c3ccccc3)cc2C1=O | active: 21.9% and active: 23.1% |
| CCc1c(C2CC2)ncn1Cc1cccc(-c2ccccc2)c1 | active: 20.4% |
| O=C(C[C@H]1CC[C@H]2[C@@H](COC[C@@H](O)CN2S(=O)(=O)c2ccc(Cl)cc2)O1)NCCN1CCCCC1 | active: 23.7% |
| COc1cc(/C=C2\SC(=Nc3c(C)n(C)n(-c4ccccc4)c3=O)NC2=O)ccc1O | inconclusive: 49.7% |
| O=C(C1=C[C@@H](c2ccc(C(F)(F)F)cc2)C[C@@H](OCc2ccc(CO)cc2)O1)N1CCOCC1 | active: 25% |
| O=C(NCc1ccncc1)c1ccc(NS(=O)(=O)c2ccccc2)cc1 | inactive: 14% |
| Nc1ccccc1S(=O)(=O)C(F)F | inactive: -1.63% |
| CC(C)c1cccc(C(C)C)c1OC(=O)NC(=O)c1c(F)cccc1F | inconclusive: 29.6% |
| CCCCCOc1ccc(/C(C)=N/NC2=NCCN2)cc1 | inconclusive: 31.9% |
| CCOC(=O)c1oc2ccc(S(=O)(=O)n3nc(-c4ccc(C)cc4)cc3N)cc2c1C | active: 89.7% |
| C[C@H]1CN([C@@H](C)CO)C(=O)c2cccc(NC(=O)Nc3ccc(F)cc3)c2O[C@H]1CN(C)Cc1ccncc1 | inactive: -2.52% |
| COc1ccc(NC(=O)N(C)C[C@H]2Oc3c(NS(=O)(=O)c4ccc(Cl)cc4)cccc3C(=O)N([C@@H](C)CO)C[C@H]2C)cc1 | inconclusive: 22.5% |
| O=C(C[C@@H]1CC[C@H](NC(=O)Cc2cccnc2)[C@@H](CO)O1)Nc1ccc(-c2ccccc2)cc1 | inconclusive: 39% |
| Cc1noc(C)c1NC(=O)N(C)C[C@H]1OCCCC[C@@H](C)Oc2ccc(NS(=O)(=O)c3ccccc3)cc2C(=O)N([C@H](C)CO)C[C@@H]1C | inconclusive: 49.3% |
| Cc1ccsc1C(=O)N1CCC1(C)C(=O)Nc1ccc2c(c1)OCCO2 (centres undefined) | inconclusive: 52.5% |
| COCCNC(=O)C1CC(=O)N(c2ccc(F)c(Cl)c2)C1 (centres undefined) | inconclusive: 20.5% |
| CN(C)CC#Cc1ccc([C@@H]2[C@H]3CN(CC4CC4)CCCCN3[C@H]2CO)cc1 | inactive: -8.4% |
| Cc1ccc(-c2cc(C(F)(F)F)n3ncc(C(=O)N4CCCCC4c4cccnc4)c3n2)cc1 (centres undefined) | inconclusive: 30.3% |
| O=C(CCNS(=O)(=O)c1ccc(F)c(Cl)c1)NCc1ccccc1F | inconclusive: 23.5% |
| COc1ccc(C(=O)/C=C/c2ccsc2)cc1CSCC(=O)O | inconclusive: 41.1% |

Reference: PubChem BioAssay AID651640 (Broad Institute, 2012)
